Data set [1] deals with Integrin alpha4beta1 on B16F10 melanoma cells (Mus musculus). Put plainly: flow cytometry. Conditions: lower affinity and MFI than HR7A1; protein on the cell surface; protein details: endogenous, ATCC cell line; label: Cy5; single-stranded DNA.
Data set [2] relates to Integrin alpha4beta1 on H9 T-lymphoma cells (Homo sapiens). The data set is described as follows: flow cytometry. Conditions: protein on the cell surface, protein details: endogenous, ATCC cell line, single-stranded DNA.
In data set [3] the test system is Integrin alpha4beta1 on Jurkat cells (clone E6-1) (Homo sapiens). Put plainly: flow cytometry. Conditions: protein on the cell surface, protein details: endogenous, ATCC cell line, single-stranded DNA.
The subject of data set [4] is Integrin beta1 (CD29) on alpha4-negative K562 cells (alpha5beta1+) (Homo sapiens). The data set is described as follows: flow cytometry. Conditions: alpha4-negative beta1-positive cells, protein on the cell surface, protein details: endogenous, ATCC cell line, single-stranded DNA.
Data set [5] relates to Integrin alpha4beta7, recombinant heterodimer (Homo sapiens). The data set is described as follows: BLI. Conditions: 100 nM protein; signal at least 10-fold lower than alpha4beta1, fast dissociation; purified recombinant protein; protein details: His-tag, ACROBiosystems IT7-H52W4; label: biotin, FAM or Cy5; single-stranded DNA.
In data set [6] the test system is Integrin alpha4beta1 in Jurkat/H9 membrane protein extract (Homo sapiens). Put plainly: pull-down. Conditions: protein in an extract, protein details: endogenous, Triton X-100 solubilised, single-stranded DNA.
Data set [7] deals with Integrin alpha4beta1 on Raji B-lymphoma cells (Homo sapiens). The data set is described as follows: flow cytometry. The settings on record: lowest binding of four lines, saturated at 12.5 nM; protein on the cell surface; protein details: endogenous, ATCC cell line; label: biotin, FAM or Cy5; single-stranded DNA.
For data set [8], the system named is Integrin alpha4beta1 on Jurkat cells (clone E6-1) (Homo sapiens). The data set is described as follows: inhibition of the protein. The settings on record: protein on the cell surface, protein details: endogenous, ATCC cell line, single-stranded DNA.
Data set [9] shares this test system. Put plainly: competition with a labelled probe. Conditions: control; does not inhibit VCAM-1 binding; protein on the cell surface; protein details: endogenous, ATCC cell line; label: biotin or Cy5; single-stranded DNA.
[10] abbreviates: apparent, range over four aptamers, Tr1 two- to three-fold lower Kd than HR7A1 and Sgc4f, 4 C, label: biotin, FAM or Cy5, variant of HR7A1.
[11] abbreviates: label: biotin, FAM or Cy5, variant of HR7A1.
[12] abbreviates: 5' DBCO-TEG with 4dT spacer, grafted on biotin-PEG4-(HPMA-co-AzP3MA)-CCP polymer, range over three conjugates, by aptamer concentration, 4 C, label: 3' Cy5, variant of HR7A1.Tr2.S2E2.
The mark [13] stands for this setting: label: biotin, variant of HR7A1.Tr2.
Setting [14] is: apparent, range over four aptamers, Tr2 two- to three-fold lower Kd than HR7A1 and Sgc4f, 4 C, label: biotin, FAM or Cy5, variant of HR7A1.

Chains of the proteins cited; added tags and fusions are not shown. A line that says so, or that is headed by a name, gives the form on record, which may keep a tag or linker.
Integrin alpha4beta1 on B16F10 melanoma cells (Mus musculus), one chain, as listed by the source, chain 2 of 2: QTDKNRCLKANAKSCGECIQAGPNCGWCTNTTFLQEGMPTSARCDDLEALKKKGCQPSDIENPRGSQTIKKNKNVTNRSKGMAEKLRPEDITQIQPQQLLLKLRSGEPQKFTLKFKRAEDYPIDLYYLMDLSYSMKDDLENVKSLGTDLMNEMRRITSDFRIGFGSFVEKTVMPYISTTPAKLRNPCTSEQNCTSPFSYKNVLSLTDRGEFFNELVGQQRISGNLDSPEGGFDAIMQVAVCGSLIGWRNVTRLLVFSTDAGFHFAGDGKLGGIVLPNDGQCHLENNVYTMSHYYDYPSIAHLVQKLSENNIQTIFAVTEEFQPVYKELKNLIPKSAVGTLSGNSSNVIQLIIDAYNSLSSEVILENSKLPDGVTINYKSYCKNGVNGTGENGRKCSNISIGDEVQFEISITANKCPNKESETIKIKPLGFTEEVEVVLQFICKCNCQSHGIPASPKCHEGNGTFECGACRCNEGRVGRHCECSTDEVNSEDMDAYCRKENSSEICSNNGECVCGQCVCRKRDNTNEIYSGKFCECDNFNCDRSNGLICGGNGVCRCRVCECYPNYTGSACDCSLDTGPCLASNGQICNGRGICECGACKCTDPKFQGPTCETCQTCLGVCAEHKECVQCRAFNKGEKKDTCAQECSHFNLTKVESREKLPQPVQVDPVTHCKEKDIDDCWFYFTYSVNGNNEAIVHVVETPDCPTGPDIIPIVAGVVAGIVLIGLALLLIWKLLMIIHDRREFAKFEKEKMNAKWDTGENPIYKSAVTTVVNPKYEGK
Integrin alpha4beta1 on B16F10 melanoma cells (Mus musculus), one chain, as listed by the source, chain 1 of 2: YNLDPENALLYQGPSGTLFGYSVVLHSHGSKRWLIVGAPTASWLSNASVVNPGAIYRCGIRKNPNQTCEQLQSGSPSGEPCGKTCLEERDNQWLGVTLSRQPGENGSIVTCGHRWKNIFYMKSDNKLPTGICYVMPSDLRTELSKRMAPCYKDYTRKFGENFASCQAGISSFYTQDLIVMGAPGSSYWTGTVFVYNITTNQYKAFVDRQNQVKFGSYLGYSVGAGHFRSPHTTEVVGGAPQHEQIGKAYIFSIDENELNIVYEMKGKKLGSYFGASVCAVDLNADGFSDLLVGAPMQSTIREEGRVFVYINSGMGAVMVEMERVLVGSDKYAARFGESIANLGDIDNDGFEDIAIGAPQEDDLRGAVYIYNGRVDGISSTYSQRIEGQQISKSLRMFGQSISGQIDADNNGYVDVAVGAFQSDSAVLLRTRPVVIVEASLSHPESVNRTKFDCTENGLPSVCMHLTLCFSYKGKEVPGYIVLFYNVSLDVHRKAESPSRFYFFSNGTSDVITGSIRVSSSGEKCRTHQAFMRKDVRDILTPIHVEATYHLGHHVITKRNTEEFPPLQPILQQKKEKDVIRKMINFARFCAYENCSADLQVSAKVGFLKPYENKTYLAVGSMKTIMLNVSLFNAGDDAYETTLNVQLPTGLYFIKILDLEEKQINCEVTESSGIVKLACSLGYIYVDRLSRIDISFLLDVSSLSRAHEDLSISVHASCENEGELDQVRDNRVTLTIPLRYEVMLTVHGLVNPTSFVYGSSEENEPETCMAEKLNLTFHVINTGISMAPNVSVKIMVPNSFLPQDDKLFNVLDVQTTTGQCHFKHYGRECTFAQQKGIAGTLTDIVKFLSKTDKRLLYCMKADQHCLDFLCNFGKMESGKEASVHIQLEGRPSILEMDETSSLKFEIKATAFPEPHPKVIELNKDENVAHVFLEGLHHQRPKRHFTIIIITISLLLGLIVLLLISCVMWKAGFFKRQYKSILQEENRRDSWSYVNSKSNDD
Integrin alpha4beta1 on H9 T-lymphoma cells (Homo sapiens), one chain, as listed by the source, chain 1 of 2: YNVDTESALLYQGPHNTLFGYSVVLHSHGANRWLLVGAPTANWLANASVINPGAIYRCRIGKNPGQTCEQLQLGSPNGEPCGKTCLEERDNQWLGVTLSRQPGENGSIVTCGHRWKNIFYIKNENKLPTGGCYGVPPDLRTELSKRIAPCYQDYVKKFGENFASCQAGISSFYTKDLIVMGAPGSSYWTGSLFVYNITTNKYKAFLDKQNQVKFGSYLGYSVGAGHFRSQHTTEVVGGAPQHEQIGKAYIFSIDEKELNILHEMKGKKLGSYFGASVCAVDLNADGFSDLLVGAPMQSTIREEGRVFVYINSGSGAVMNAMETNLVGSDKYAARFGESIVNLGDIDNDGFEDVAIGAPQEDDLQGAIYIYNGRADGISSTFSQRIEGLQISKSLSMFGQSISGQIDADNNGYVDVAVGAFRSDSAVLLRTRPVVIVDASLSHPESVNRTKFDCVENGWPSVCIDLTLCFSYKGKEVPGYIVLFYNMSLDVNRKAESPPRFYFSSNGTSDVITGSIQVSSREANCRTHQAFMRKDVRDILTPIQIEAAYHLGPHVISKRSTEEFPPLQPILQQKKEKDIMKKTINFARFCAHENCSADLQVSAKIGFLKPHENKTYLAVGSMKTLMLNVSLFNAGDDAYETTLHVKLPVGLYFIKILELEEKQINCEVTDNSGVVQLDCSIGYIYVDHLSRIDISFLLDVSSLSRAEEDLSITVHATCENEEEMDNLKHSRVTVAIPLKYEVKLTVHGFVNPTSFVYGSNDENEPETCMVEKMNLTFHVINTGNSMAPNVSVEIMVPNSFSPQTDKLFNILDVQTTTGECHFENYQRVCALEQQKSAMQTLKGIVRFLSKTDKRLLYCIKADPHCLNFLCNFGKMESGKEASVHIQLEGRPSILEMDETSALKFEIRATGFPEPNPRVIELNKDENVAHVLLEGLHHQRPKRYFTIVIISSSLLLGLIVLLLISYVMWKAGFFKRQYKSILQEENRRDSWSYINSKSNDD
Integrin alpha4beta7, recombinant heterodimer (Homo sapiens), one chain, as listed by the source, chain 2 of 2: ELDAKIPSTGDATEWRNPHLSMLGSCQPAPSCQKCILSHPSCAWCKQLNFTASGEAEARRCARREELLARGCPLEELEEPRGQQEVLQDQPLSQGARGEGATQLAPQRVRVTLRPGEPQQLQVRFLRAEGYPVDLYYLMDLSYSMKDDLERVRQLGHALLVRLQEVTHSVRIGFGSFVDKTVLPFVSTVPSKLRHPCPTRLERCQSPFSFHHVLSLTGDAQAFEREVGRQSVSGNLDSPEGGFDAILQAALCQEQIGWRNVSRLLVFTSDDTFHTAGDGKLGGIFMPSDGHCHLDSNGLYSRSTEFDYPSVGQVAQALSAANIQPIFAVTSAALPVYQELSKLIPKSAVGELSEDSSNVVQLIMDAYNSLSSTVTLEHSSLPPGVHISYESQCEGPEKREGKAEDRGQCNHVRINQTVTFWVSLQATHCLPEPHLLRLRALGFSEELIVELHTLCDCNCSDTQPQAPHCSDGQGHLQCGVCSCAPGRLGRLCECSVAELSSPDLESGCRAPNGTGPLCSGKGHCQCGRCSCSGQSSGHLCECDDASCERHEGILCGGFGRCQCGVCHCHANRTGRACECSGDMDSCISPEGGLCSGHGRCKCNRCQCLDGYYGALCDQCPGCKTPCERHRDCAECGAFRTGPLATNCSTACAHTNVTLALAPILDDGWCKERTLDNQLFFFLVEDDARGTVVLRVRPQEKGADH
Integrin alpha4beta7, recombinant heterodimer (Homo sapiens), one chain, as listed by the source, chain 1 of 2: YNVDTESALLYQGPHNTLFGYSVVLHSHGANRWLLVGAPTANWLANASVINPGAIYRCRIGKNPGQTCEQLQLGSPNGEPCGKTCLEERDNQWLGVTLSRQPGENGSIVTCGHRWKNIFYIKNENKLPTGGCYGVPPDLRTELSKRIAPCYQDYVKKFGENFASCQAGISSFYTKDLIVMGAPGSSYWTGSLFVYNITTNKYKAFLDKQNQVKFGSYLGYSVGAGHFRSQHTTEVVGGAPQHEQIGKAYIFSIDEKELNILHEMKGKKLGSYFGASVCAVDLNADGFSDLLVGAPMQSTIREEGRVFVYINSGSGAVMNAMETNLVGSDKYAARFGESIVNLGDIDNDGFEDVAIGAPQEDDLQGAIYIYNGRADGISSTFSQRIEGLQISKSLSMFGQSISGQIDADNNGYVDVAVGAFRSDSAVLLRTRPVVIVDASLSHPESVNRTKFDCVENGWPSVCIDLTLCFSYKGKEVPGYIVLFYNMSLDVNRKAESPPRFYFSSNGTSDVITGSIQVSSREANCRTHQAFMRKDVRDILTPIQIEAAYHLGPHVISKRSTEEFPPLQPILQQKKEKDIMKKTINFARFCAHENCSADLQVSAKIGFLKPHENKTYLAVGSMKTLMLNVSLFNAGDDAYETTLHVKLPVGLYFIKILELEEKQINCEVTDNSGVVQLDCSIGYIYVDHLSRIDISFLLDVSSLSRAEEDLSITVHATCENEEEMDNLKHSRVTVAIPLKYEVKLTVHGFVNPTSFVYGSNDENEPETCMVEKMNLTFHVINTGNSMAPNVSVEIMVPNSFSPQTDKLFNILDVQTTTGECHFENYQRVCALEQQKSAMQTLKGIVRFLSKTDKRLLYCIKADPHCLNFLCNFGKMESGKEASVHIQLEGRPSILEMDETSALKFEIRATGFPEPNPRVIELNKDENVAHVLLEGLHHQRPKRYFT
Integrin beta1 (CD29) on alpha4-negative K562 cells (alpha5beta1+) (Homo sapiens), one chain, as listed by the source, chain 1 of 2: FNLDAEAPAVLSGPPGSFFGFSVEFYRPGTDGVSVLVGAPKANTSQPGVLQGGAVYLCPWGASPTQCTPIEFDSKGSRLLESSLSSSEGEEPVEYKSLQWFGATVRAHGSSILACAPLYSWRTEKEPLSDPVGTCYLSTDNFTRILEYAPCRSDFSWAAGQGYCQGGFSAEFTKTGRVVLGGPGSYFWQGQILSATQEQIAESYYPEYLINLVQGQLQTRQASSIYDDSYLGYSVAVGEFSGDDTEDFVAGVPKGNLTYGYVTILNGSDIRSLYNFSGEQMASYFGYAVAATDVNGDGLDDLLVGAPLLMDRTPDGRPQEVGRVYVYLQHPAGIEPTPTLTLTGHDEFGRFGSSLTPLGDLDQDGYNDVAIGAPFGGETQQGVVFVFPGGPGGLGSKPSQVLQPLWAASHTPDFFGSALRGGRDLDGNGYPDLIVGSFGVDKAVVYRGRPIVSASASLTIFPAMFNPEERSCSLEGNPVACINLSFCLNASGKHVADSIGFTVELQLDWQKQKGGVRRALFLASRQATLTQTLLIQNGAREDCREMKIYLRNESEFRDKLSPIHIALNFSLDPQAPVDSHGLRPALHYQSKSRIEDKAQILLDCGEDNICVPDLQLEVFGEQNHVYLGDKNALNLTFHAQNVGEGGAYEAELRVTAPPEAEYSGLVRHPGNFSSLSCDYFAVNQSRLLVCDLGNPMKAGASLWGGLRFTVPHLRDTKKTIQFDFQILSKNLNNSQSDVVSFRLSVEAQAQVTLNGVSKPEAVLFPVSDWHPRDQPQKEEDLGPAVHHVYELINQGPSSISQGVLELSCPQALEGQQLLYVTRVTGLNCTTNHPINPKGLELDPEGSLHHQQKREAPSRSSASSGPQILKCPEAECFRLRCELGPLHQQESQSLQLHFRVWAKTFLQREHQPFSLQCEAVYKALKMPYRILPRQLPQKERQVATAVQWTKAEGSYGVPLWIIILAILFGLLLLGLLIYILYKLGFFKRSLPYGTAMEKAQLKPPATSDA

For part of these data: Weaker means in comparison with the reference protein, sequence or condition of that experiment. For part of these data: Where cells or extracts were used, other partners may take part. For part of these data: A negative result means that nothing was seen under these conditions. For part of these data: For at least one entry, the source does not settle the construct or the ends of the probe.

For “ATCACTTATAACGAGTGCGGATGCAAACGCCAGACAGGGGGACAGGAGATAAGTGA [Sgc4f]”, the binding result is listed as “binds more weakly” in data set [1]; “binds” in data set [2] (apparent, range over four aptamers, similar to HR7A1, 4 C, label: Cy5); “binds” in [3] (apparent, range over four aptamers, slightly lower affinity than HR7A1, 4 C, label: Cy5); “no binding” in data set [4] (label: Cy5).

“ATCCAGAGTGACGCAGCAAACCTGACCTCCTTACTAGATGCAACCCGACTACTAACGTCGTAAGAGAGCCTGGACACGGTGGCTTAGT [HR7A1]”: the binding result in data set [5] is “binds more weakly”; in data set [6] (bands identified by MS as integrin alpha4 and beta1, label: biotin, FAM or Cy5) it was “binds”; in data set [7], “binds”; in data set [4] (label: biotin, FAM or Cy5), “no binding”.

Take “CAGCAAACCTGACCTCCTTACTAGATGCAACCCGACTACTAACGTCGTAAGAGAG [HR7A1.Tr1]”: the results for the binding result in data set [2] (setting [10]), in data set [3] (setting [10]) and in [4] (setting [11]) were “binds”, “binds” and “no binding”, respectively.

Regarding “CGCGCCGTACTAGATGCAACCCGACTACTAACGTCGTACGAGCGCG [HR7A1.Tr2.S2E2-polymer conjugate 1:1]”, in data set [3] (setting [12]), the binding result was “binds”.

As to “CGCGCCGTACTAGATGCAACCCGACTACTAACGTCGTACGAGCGCG [HR7A1.Tr2.S2E2-polymer conjugate 3:1]”, in [3] (setting [12]), the binding result is recorded as “binds”. Further, the “functional effect of the aptamer” value in data set [8] (5' DBCO-TEG with 4dT spacer, grafted on biotin-PEG4-(HPMA-co-AzP3MA)-CCP polymer, improved inhibition of Jurkat adhesion to VCAM-1 at 37 C vs free aptamer, label: 3' Cy5, variant of HR7A1.Tr2.S2E2, dose not given here) is “active”.

For “CGCGCCGTACTAGATGCAACCCGACTACTAACGTCGTACGAGCGCG [HR7A1.Tr2.S2E2.PSA]”, the “functional effect of the aptamer” value in [8] (PS at * : C*G*CGCCGTA*CTA*GA*TGCA*A*CCCGACTACTAA*CGTCGTACGAGCG*C*G, 100 nM inhibits Jurkat adhesion to VCAM-1, less at 37 C than 4 C, variant of HR7A1.Tr2.S2E2) was “active”.

In the case of “CGCGCCGTACTAGATGCAACCCGACTACTAACGTCGTACGAGCGCG [HR7A1.Tr2.S2E2]”, the “functional effect of the aptamer” value in data set [8] (100 nM inhibits Jurkat adhesion to VCAM-1, less at 37 C than 4 C, label: FAM or Cy5, variant of HR7A1.Tr2) was “active”.

Regarding CTAGATGCAACCCGACTACTAACGTCG [HR7A1.Tr3], the binding result in data set [2] (setting [13]) and in [3] (setting [13]) was “no binding” in each case.

As for “CTCCTTACTAGATGCAACCCGACTACTAACGTCGTAAGAGAG [HR7A1.Tr2]”, the binding result is “binds” in data set [2] (setting [14]), “binds” in data set [3] (setting [14]) and “no binding” in data set [4] (setting [11]).

For the sequence “GCAGCAGCGTAAAGGGGGTGTTTGTGCGGTGTGGAGTGCGCGTGCTGCTGC [tJBA8.1]”, the binding result was “no binding” in [6] (TfR1 aptamer control, alpha4/beta1 bands not enriched, label: biotin or Cy5) and “no binding” in [9].

As to “GCGTACTAGATGCAACCCGACTACTAACGTCGTACGC [HR7A1.Tr4]”, the binding result in data set [3] (retains binding affinity, minimal motif, label: Cy5, variant of HR7A1.Tr2) is “binds”.

(Values after US20250020645, “A4B1 BINDING APTAMERS” (University of Washington, published 2025).)
